# The RNAGym collection of RNA variant scans (doi:10.1126/science.aae0568)
# Variants at the background level are over-represented here.
# B1: tRNA (parent)
# chain: GUUCCGUUGGCGUAAUGGUAACGCGUCUCCCUCCUAAGGAGAAGACUGCGGGUUCGAGUCCCGUACGGAACG
# Variants of: B1
# Assay: yeast fitness relative to wild type (ratio to wild type); higher = fitter; tRNA-Arg(CCU), competitive growth, 37 C, YPD
# Summary of the method: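 Start and end populations of a pooled competition were compared by 100-nucleotide paired-end sequencing of gene amplicons. The Saccharomyces cerevisiae strains carried tRNA-Arg(CCU) gene variants at the native genomic locus, synthesised with a 3% per-site mutation rate at 69 sites, and competed in YPD at 37°C for 24 hours in six parallel replicates. Darwinian fitness relative to wild type was based on the change in genotype frequencies. Genotypes required ≥ 100 starting reads, and estimates < 0.5 were set to 0.5.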
row,Variant,yeast fitness
1,GUUCCGUUGGUGUAAUGGUAACGCGUCUCCCUCCUAAGGAGUGGACUGCGGCUUCGAGUGCCGUACGGAACG [C11U A42U A43G G52C C60G],≤ 0.5
2,GUUCCGUUGGCGUAAUGGUAAGGCGUCUCCCUCCUAAGGAGAAGACUGCGGCUUCGAGUCGCGUACGGAACG [C22G G52C C61G],≤ 0.5
3,GUUCCGUUGGCGUAAUGGUAACGCGUCUCCCUCCUAAGCAGAAGACUGCGGAUUCGAGUCCCGUACGAAACG [G39C G52A G68A],≤ 0.5
4,GUUCCGUUGGCGUAAUGCUAACGCGUCUCCCUCCAAAGGAGAAGACUGCGGGUUCGAGUCUCGUACGGAACG [G18C U35A C61U],≤ 0.5
5,GUUCCGUUGGCGUAAUGGUAACGCGUCUCCCUCCUAAGGAGAAGAUUGCGGGUUCGAGUCUCGUACGGAACG [C46U C61U],0.956
6,GUUCCGUUGCUGUAAUGGUCACGCGUCUCCUUCCUAAGGAGAAGACUGCGGGUUCGUGUCCCGUACGGAACG [G10C C11U A20C C31U A57U],≤ 0.5
7,GUUCCGUUGGCGUAAAGGUAACGCGUGUCCCUCCUAAGGAGAAGAGUGCGGGUUCGAGUCCCGUACAGAACG [U16A C27G C46G G67A],0.505
8,GUUCCGUUGGAGUAAUGGUAGCGCGUCUCCCUCGUAACGAGAAGACUGCGGGUUCGAGUCCGGUACGGCACG [C11A A21G C34G G38C C62G A69C],≤ 0.5
9,GUUCCGUUGGCGUAAUGGUAAUGCGUCCGCCUACUAAGGAGAAGACUGCGGGUUCGAGUCCUAAACGGAACG [C22U U28C C29G C33A C62U G63A U64A],≤ 0.5
10,GUCCCGUUGCCGUAAUGGUAACGCGUCUCCCUCGUAAGGAGAAGACUGCGGGUUCGAGACCCGUACGGAACG [U3C G10C C34G U59A],≤ 0.5
11,GUUCUGUUGGCGUAAUGGUAAUGCGUCUCCCUUCUUAGGAGACGACUGCGGGUUCGAGUUGCGUACGGAGCG [C5U C22U C33U A36U A43C C60U C61G A70G],≤ 0.5
12,GUUCCGUUAGAGUAAUGGUUACACGUCUCCCUCCUAAGGAGAAGACUGCGAGUUCGAGUCCCGUACGGAACG [G9A C11A A20U G23A G51A],≤ 0.5
13,GUUCCGUUAGCGUAAUGGUAACGUGUCUCCCUCCUAAGGUGAAGACUGCGGGUUCAAGUCCCGUACCGAACG [G9A C24U A40U G56A G67C],≤ 0.5
14,GUUCCGUAGGCAUCAUGGUAACGCGUCUCCCUCCUAAGGAGAAGACUGCGGGUUCGAGUCCCGUACGGAACG [U8A G12A A14C],≤ 0.5
15,GUUCAGUUGGCGUAGUGGUAACGCGUCUCCCUACUAAGGAGAAGACUGCGGGUUCGGGUCUCGUACGGAACG [C5A A15G C33A A57G C61U],≤ 0.5
16,GUUUCGUUGGCGUAAUGGUAACGUGUCUCCCUCCUAGGGAGAAGACUGCGGGUUCGAGUCCCGUAUGGACCG [C4U C24U A37G C66U A70C],≤ 0.5
17,GUUCCGUUGGCGUAAUGGUUACGCGUCUCCCUCCUAAGCAGAAGACUGCGGGUUCGAGUCCCGUACGGAACG [A20U G39C],0.81
18,GUUACGUUGGCGUUAUGGUAACGCGUCUCGCUCCUAAGGAGAAGACUGCGGGCUCGAGUAACGUAGGGAACG [C4A A14U C30G U53C C60A C61A C66G],≤ 0.5
19,GUUCGGGUGGCGUCAUGGAAACGCGUCUCCCUGCUAAGGAGAAGACUGCGGGUUCGAGUCCCGUACGGAACG [C5G U7G A14C U19A C33G],≤ 0.5

row,Variant,yeast fitness
1,GUUCCGUUGGUGUAAUGGUAAGGCGUCUCUCUCCUAAGGAGAAGACUGCGGGUCCGAGUCCCGUACGGAACG [C11U C22G C30U U54C],≤ 0.5
2,GUUCCGUUGGCGUAAUGGUAACGCGUCUCCCUCCUAAGGAGUAGACUGCCGGUUCGAGUCCAGUACGGAACG [A42U G50C C62A],≤ 0.5
3,GUUCCGUUGGCGUAAUGGUAACGUGUCUCCCUCCUAAGGAGACGACUGCGUGUUCGAGUCCCGUACGGAACG [C24U A43C G51U],≤ 0.5
4,GUUCCGUUGGCGUAAUGGUAACGCGUCUCCCUCCUAUGGAGAAGACUGCGAGUUCGAGCCCCGUACGGAACG [A37U G51A U59C],≤ 0.5
5,GUUCCGCUGGCGUAAUGGUAACGCGUCUCCCUCCUAAGGAACAGACUGCCGGUUCGAGUUCCGUACGGAACG [U7C G41A A42C G50C C60U],≤ 0.5
6,GUUGCGUUGGCGUAAUGGUAACGCGUCUCCCUCCUAAGGUGAAGACAGCGGGUUCGAGUCCCGUACGGAACG [C4G A40U U47A],≤ 0.5
7,GUUCCGUUGGUGUAAUGGUAACGCGUCUUCCUCCUAAGGAGAAGACUGCGGGUUCGAGUCCCGUACAGAACG [C11U C29U G67A],0.57
8,GUUCCAUUGGCGUAAUGGUAACGCGUCUGCCCCCUAAGGAGAAGACUGCGGGUUCGAGUCCCGUACGGAACG [G6A C29G U32C],0.548
9,GAUCCGUUGGCGUAAUGGUAACGCGUGUCCAUCAUAACGAGAAGACUGGGGGUUCGAGUCCCGUACGGAACG [U2A C27G C31A C34A G38C C49G],≤ 0.5
10,GUUCCGUUGGGGUAAUGGUAACGCGUCUCCCUUCUAAGGAGCCGACUGUGGGUUCGAGUCCCGUACGGUACG [C11G C33U A42C A43C C49U A69U],≤ 0.5
11,GUUCCGUUGGGGUAAUGGUACCGCGUCUCCCUCUUAAGGGGAAGACUGCGGGUUCGAGUCCCGUACGGAACG [C11G A21C C34U A40G],≤ 0.5
12,GUUCCGUUGGCGUAAUGGUAACGCGCCUCCCUCCUAAGGAGAAGACUGCGGGAUCGAGUCCCGUACGCAACG [U26C U53A G68C],≤ 0.5
13,GUUCCGUUGGCGUAAUGAUAACGCGUCUCCCUCUUAAGGAGAAGACUGCGGGUUCGAGUUCCGUACGGAACG [G18A C34U C60U],≤ 0.5
14,GUUGCGUUGGCGUAAUGGUAACGCGUGUCCCUCCUAAGGAGAAGACUGCGGGUUCGAGUCCCGUGCGGGACG [C4G C27G A65G A69G],≤ 0.5
15,GUUCGGUUGGCGUAAUGGUAACGCGUUUCCCUCCUAAGGAGAAGACUGCGGGUUCGAGUCCCGUACGGAACG [C5G C27U],0.651
16,GUUCCGUCGGCGUAAUGGUAACGCGUUUCCCUCCUAAGGGGAAAACUGCGGGUUCGAGUCCAGUACGGAACG [U8C C27U A40G G44A C62A],≤ 0.5
17,GUUCCGUUGGCGUAAUGGUUACGCGUCUCCAUCCUACGGAGAAGACUGCGGGUUCGAGUCCCGUACGGAACG [A20U C31A A37C],≤ 0.5
18,GUUCCGUUGGCGUUAUGGUAACGCGUCUCCCUCCUAAGGAGAGGACUGCGGGUUCGAGUCCAGUACGGAACG [A14U A43G C62A],≤ 0.5
19,GUCCCGUUGGCGUAAUGGUAACGCGUCUCCCUCCUAAGGAGAAGUCUGCAGGUUCGCGUCCCGUACGGAACG [U3C A45U G50A A57C],≤ 0.5
